The test addresses DUX4 (double homeodomain transcription factor), MAC-tagged (human) (UniProt Q9UBX2). Briefly: affinity purification with mass spectrometry + proximity labelling.

Chains of the proteins cited; added tags and fusions are not shown.
UniProt Q96RN5: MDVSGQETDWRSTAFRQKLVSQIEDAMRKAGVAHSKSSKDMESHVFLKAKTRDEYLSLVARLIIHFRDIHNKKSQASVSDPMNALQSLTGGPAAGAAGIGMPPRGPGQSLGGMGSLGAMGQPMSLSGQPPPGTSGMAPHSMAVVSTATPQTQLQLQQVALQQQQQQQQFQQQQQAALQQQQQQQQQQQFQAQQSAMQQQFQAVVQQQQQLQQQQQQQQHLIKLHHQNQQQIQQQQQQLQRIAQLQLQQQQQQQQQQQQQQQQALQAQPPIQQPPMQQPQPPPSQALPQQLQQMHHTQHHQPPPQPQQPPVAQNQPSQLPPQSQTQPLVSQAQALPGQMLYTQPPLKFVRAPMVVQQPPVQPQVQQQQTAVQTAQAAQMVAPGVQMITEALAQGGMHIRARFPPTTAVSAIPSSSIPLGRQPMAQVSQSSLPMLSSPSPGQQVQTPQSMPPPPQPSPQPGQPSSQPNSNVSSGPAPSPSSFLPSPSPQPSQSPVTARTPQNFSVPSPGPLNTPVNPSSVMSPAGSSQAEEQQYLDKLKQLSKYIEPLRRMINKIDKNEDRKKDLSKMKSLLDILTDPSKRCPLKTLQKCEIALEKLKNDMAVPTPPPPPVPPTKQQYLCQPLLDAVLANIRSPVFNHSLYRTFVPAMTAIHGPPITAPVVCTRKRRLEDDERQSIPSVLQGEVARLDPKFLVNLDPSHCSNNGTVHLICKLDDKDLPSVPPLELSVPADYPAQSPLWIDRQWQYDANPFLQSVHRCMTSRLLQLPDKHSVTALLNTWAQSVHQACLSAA

Results are given in words; binding and its absence hold for the method and conditions named. In cells and extracts the contact can be indirect. A yes stands for co-enrichment or nearness to the bait. Other partners may have been found.

With “MED15 transcriptional mediator (from UniProt Q96RN5 1-788)”, the binding result is on record as “binds”.

The values above are taken from paper doi:10.1101/732289 (bioRxiv, 2020).
